Data taken from ChEMBL document CHEMBL3988442, “University of Dundee, Small-Polar-MMV Screening Library” (2021).

The filed quantity is “Percent Effect” (%).
The controls that fix the scale are not given in the record; negative values are as filed.
The compounds are a random part of those screened.
Two or more numbers in one place are separate tests of the same structure; such repeats can differ widely.

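Viability assay of Plasmodium falciparum sporozoites; the read-out is not stated. The concentration is filed as 10 mM, unlikely as a test dose, so the dose is not known. Direction is inferred from retests: higher values go with lower viability. Strong results were mostly tested again. Of about 34,000 compounds tested this way, about 280 (0.84%) reached 50% or more in at least one test.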

compound	percent effect
[H][C@@]12CCN(S(=O)(=O)C3CC3)[C@]1([H])CCC(=O)N2CC1CC1	12.26%
Cn1cc(CN2CCC3(CC(=O)N(c4ccc5c(c4)OCO5)C3)C2)cn1.O=C(O)C(F)(F)F (centres unmarked)	-13.98%
O=C(NCc1ccc2c(c1)OCO2)[C@H]1C=CCN1c1ncccn1	-8.12%
[H][C@@]12CC[C@@]([H])(C1)[C@H](Nc1nc(-c3ccncc3)nc3c1cnn3C)C2	-5.104%
Cn1cc(C(=O)N2CCN(Cc3ccsc3)CC2)cn1	0.1655%
CC(C)c1nc(C2CCCN2c2cnc3cc(F)c(F)cc3n2)no1 (centres unmarked)	2.109%
O=C1CCC(c2nc(C3CCN(C(=O)Cc4cccs4)CC3)no2)N1 (centres unmarked)	15.28%
CNC(=O)c1c[nH]nc1C1CCCN1c1ncccn1 (centres unmarked)	5.425%
O=C(O)C(F)(F)F.[H][C@@]12CCN(CCc3ccccc3)C[C@]1([H])[C@H](C(=O)NC1CC1)CCO2	0.4476%
COCC1CC2(CCN(c3cccc(C)n3)CC2)CN1c1ncccn1.O=C(O)C(F)(F)F (centres unmarked)	-2.7%
Cc1nc(C2CCCN(C(=O)c3cnn(C(C)(C)C)c3)C2)no1 (centres unmarked)	-14.56%
CC(C(=O)Nc1ccc(N2CCCCC2)nc1)n1cncn1 (centres unmarked)	-3.327%
COc1ccc(CN2CCCC(Cn3nc(C)nc3C)C2)cc1F (centres unmarked)	-16.47%
CN(C)c1ccc(C(=O)N2CCN(C(=O)N3CCCCC3)CC2)nn1	2.617%
[H][C@@]12C[C@@H](C)O[C@]1([H])CN(C(=O)C1=CCCC1)C2	14.54%
Cc1nn(C)cc1CN1CCc2nc(-c3cccnc3)nc(O)c2C1	13.8%
CNCC(=O)N1CCCC1c1cncc(Oc2ccc(F)cc2)n1.Cl (centres unmarked)	-4.797%
O=C(O)C(F)(F)F.O=C1CCCN1Cc1nnn2c1CN(c1cccnc1)CCC2	-6.764%
CCCNc1ccc(C(=O)NCCc2cccc(Cl)c2)cn1	-7.329%
COc1ccc(C(=O)C2CCCN(Cc3ccncc3)C2)c(OC)c1 (centres unmarked)	-19.23%
Cc1cc(-c2nn(C)c(Cl)c2CN2CCOCC2CC(=O)O)no1 (centres unmarked)	-3.015%
CCc1nc(CN2CCOC(CN(CC)c3cccnn3)C2)cs1 (centres unmarked)	1.115%
[H][C@]12CC[C@]([H])(CN(Cc3ccccc3)C1)N(C(=O)c1cnc(SC)nc1)C2	0.1181%
Cc1noc(C)c1CC(=O)NCC1(O)CCCN(c2ccccn2)C1 (centres unmarked)	1.227%
CN(C)C(=O)CN1CCOCC2(CCN(c3ncc(F)cn3)CC2)C1.O=C(O)C(F)(F)F	6.305%
CN1C(=O)C2(CC(=O)Nc3[nH]ncc32)c2cc(F)ccc21 (centres unmarked)	-0.4541%
OC1CCN(Cc2cc3c(cc2Br)OCCO3)CC1	-16.35%
Cc1cnn(CCC(=O)N2CCCC(c3cc(C(N)=O)[nH]n3)C2)c1 (centres unmarked)	-0.16%
O=C(CN1CCc2c(ncn2C2CC2)C1)NC1CCN(C2CC2)CC1	-1.35%
CN(C)Cc1cnc(C2CCN(C(=O)c3ccc(F)cc3)C2)[nH]1 (centres unmarked)	-7.853%
CC(C)COC(=O)N1CC(=O)N(CCc2ccccc2)CC(O)C1 (centres unmarked)	-25.07%
CCOc1ncccc1CNC(=O)N1CCCC1c1ccncc1 (centres unmarked)	-11.59%
O=C(O)C(F)(F)F.c1ccc(Cn2cc3c(n2)C(COCC2CC2)OCC3)nc1 (centres unmarked)	-2.123%
CSC(CNS(=O)(=O)c1cnn(C)c1)c1cccc(Cl)c1 (centres unmarked)	1.371%
CN(C)c1ncccc1CNS(=O)(=O)c1ccc(C(N)=O)cc1	9.892%
CC1(C(N)=O)CN(CC2CCOCC2)CCO1 (centres unmarked)	3.927%
CC(=O)N(C)Cc1ncn2c1CN(C(=O)CC1CC1)CCC2	-1.181%
Cc1cc(F)c(S(=O)(=O)NCCCN2CCC(O)CC2)cc1F	-6.543%
CCc1nc2n(n1)CC(NCc1cc(OC)c3c(c1)OCCO3)CC2 (centres unmarked)	5.967%
[H][C@@]12C[C@H](C(=O)N(C)C)[C@@]([H])(CN(S(=O)(=O)CC)C1)O2	-3.345%
CCn1cc(CNCC(c2ccc(C)s2)N2CCOCC2)cn1 (centres unmarked)	7.794% and -11.35% and -16.78%
O=C(C1CC=CC1)N1CC[C@@H](O)[C@H]1Cc1cccnc1	3.16%
N#Cc1ccc(F)c(CN2CCCC2Cn2cnc3ccccc32)c1 (centres unmarked)	-15.46%
O=C(c1cc(COc2ccc3c(c2)OCO3)[nH]n1)N1CCOCC1	-20.11%
CCOCCCNC(=O)c1cn(C(C)(C)C)c2ncccc12	-0.9036%
Oc1cc(CNCCN2CCCCC2)nc2c(F)cccc12	-10.77%
CCc1noc(CC)c1CNC(=O)Nc1cccc([S+](C)[O-])c1 (centres unmarked)	2.113%
CN(C)Cc1ccc(C(=O)N2CCCC(n3cccn3)C2)cc1 (centres unmarked)	-12.66%
CO[C@H]1CN(Cc2nc3ccccc3n2C)C[C@@]12CCCO2	7.964%
COc1ccc(-c2ccnc3c2C(=O)CCC3)cc1	12.49%
COc1ccc(-c2nc(CN3CCCC3Cn3cccn3)no2)cc1 (centres unmarked)	2.289%
CC(C)(O)CN1CCN(C(=O)c2cccn2Cc2ccccc2)CC1	2.216%
CO[C@@H]1CN(C)S(=O)(=O)[C@@]12CCN(Cc1ccccc1)C2	-34.33%
COc1ccc2c(ccn2CC(=O)Nc2n[nH]c(C(C)C)n2)c1	-12.36%
CCN(Cc1ccco1)C(=O)c1cc(OC)c2c(c1)OCCO2	-20.18%
CC(C)Cc1noc(CN2CCCC2c2noc(C3CC3)n2)n1 (centres unmarked)	7.212%
CCN(CC)C1COc2c(cc(Br)c(C)c2Br)C1=O (centres unmarked)	4.689%
CS(=O)(=O)N1CCN(CC(O)COc2ccc(Cl)cc2)CC1 (centres unmarked)	-1.19%
CC(C)c1n[nH]c(C(=O)Nc2ccccn2)c1Br	107.3% and 96.92% and 105.3%
CSc1ccc(C(=O)N2CC(=O)N(CC3CC3)CC(O)C2)cc1 (centres unmarked)	-39.51%
CC(NC(=O)NCCCN(C)S(C)(=O)=O)c1cccnc1 (centres unmarked)	-5.787%
CC(=O)Nc1nc(C(=O)NC(C)c2ccc3c(c2)OCCO3)cs1 (centres unmarked)	-7.63%
CC(=O)c1c(F)cccc1N1CCC(Cc2cccnc2)CC1	-12.07%
Cc1cccc(CNCC2COC3(CCCC3)O2)c1C (centres unmarked)	-6.927%
c1ccc(OCC2CC3(CCN(Cc4ccncc4)CC3)CO2)nc1 (centres unmarked)	1.316%
CC(C)C(O)CNC(=O)Nc1cnn(Cc2ccccc2)c1 (centres unmarked)	-12.91%
[H][C@@]12OCCN(C(=O)c3occc3C)[C@@]1([H])CC[C@H]2OCc1ccncc1	5.702%
Cc1nn(C)c(C)c1NC(=O)CNC(c1ccc(F)cc1)C1CCC1 (centres unmarked)	0.111%
COc1ccc(COCC(O)CNC(=O)c2cc(C)no2)cc1 (centres unmarked)	0.9421%
CCCN1C[C@H](NC(=O)c2cccs2)[C@@H](c2ccc(OC)cc2)C1	7.21%
Nc1nccnc1C(=O)N1CCN(CCOc2ccccc2)CC1	9.677%
c1cc(CN2CCCCC2c2ccc(Nc3cnccn3)nc2)ccn1 (centres unmarked)	-0.6966%
[H][C@]12CCN(C(=O)COC)[C@@]1([H])CC[C@H](COCc1csc(C)n1)O2	-1.6%
O=C(O)C(F)(F)F.[H][C@]12CCC[C@@H](CNc3ccccn3)[C@@]1([H])CN(Cc1cc[nH]n1)C2	-0.5963%
Cc1csc(C2CCCN(C(=O)c3cnc4n[nH]c(C)c4c3)C2)n1 (centres unmarked)	-3.68%
CC(=O)N1N=C(Cc2ccccc2)OC1C(=O)NCC(=O)OC(C)(C)C (centres unmarked)	-12.35%
COc1ccccc1CC(C)N(C)CCS(C)(=O)=O (centres unmarked)	-0.3293%
Cc1cc(C)n(CC2CCCCN2CC(=O)Nc2nncs2)n1 (centres unmarked)	-7.725%
Cc1cc(C(=O)NCc2ccnc(N(C)C)c2)c(C)o1	2.289%
CC(C)c1noc(-c2ccc(NCCCN3CCCC(O)C3)nc2)n1 (centres unmarked)	6.052% and 9.442%
Cc1cc(C(C)C(=O)N2CCCN(Cc3cscn3)CC2)c(C)o1 (centres unmarked)	3.133%
O=C(CCc1c(F)cccc1F)NS(=O)(=O)c1ccc2c(c1)OCCO2	3.23%
COc1cccc(CNc2c(O)c(=O)c2=O)c1	-2.816%
CNC(=O)CN1CCOCC12CCN(C(=O)c1ccccc1)CC2.O=C(O)C(F)(F)F	-17.24%
c1cc(-c2noc(CN3CCn4c(nnc4C4CC4)C3)n2)co1	2.738%
COC(=O)C(C)(C)NC(=O)C1CC(=O)N(C)C1 (centres unmarked)	-9.261%
Cc1cc(OCC(=O)N2CCCC(c3ccn[nH]3)C2)no1 (centres unmarked)	-9.804%
CCOc1ccnc(N2CCN(C(=O)c3cc(Cl)c[nH]3)CC2)n1	0.9046%
CC(C)c1nc2n(n1)CC(NCc1ncc(C(C)(C)C)o1)CC2 (centres unmarked)	19.58%
CC(C)(Oc1ccc(C(N)=O)cc1)C(=O)N(CCC#N)CC1CCCO1 (centres unmarked)	6.526%
O=C(O)C(F)(F)F.[H][C@@]12CCN(C(=O)c3cscn3)[C@@]1([H])CCN2CC1CCOC1 (some centres unmarked)	5.199%
Cc1cc(C(F)(F)F)nn1C(C)C(=O)Nc1ccncc1 (centres unmarked)	-1.535%
CN(C)CCOCc1cncc2c1CCN(C1CCOC1)C2.O=C(O)C(F)(F)F.O=C(O)C(F)(F)F.O=C(O)C(F)(F)F (centres unmarked)	6.066%
Cc1cc(C)n(CC2CCCN2CCCc2nc3ccccc3o2)n1 (centres unmarked)	-1.296%
CCc1ccc(CNC2(c3ccc(F)cc3)CCOCC2)o1	-20.71%

The last 12 entries again:

| compound | percent effect |
|---|---|
| `CNC(=O)CN1CCOCC12CCN(C(=O)c1ccccc1)CC2.O=C(O)C(F)(F)F` | -17.24% |
| `c1cc(-c2noc(CN3CCn4c(nnc4C4CC4)C3)n2)co1` | 2.738% |
| `COC(=O)C(C)(C)NC(=O)C1CC(=O)N(C)C1` (centres unmarked) | -9.261% |
| `Cc1cc(OCC(=O)N2CCCC(c3ccn[nH]3)C2)no1` (centres unmarked) | -9.804% |
| `CCOc1ccnc(N2CCN(C(=O)c3cc(Cl)c[nH]3)CC2)n1` | 0.9046% |
| `CC(C)c1nc2n(n1)CC(NCc1ncc(C(C)(C)C)o1)CC2` (centres unmarked) | 19.58% |
| `CC(C)(Oc1ccc(C(N)=O)cc1)C(=O)N(CCC#N)CC1CCCO1` (centres unmarked) | 6.526% |
| `O=C(O)C(F)(F)F.[H][C@@]12CCN(C(=O)c3cscn3)[C@@]1([H])CCN2CC1CCOC1` (some centres unmarked) | 5.199% |
| `Cc1cc(C(F)(F)F)nn1C(C)C(=O)Nc1ccncc1` (centres unmarked) | -1.535% |
| `CN(C)CCOCc1cncc2c1CCN(C1CCOC1)C2.O=C(O)C(F)(F)F.O=C(O)C(F)(F)F.O=C(O)C(F)(F)F` (centres unmarked) | 6.066% |
| `Cc1cc(C)n(CC2CCCN2CCCc2nc3ccccc3o2)n1` (centres unmarked) | -1.296% |
| `CCc1ccc(CNC2(c3ccc(F)cc3)CCOCC2)o1` | -20.71% |